Reference: publication PMC11131025
These are yes or no findings as the source states them, for the method shown. Binding can be weak; no strength is given. For part of these data: Sequences can lack the tags named with a protein.

What was measured:
[1] = biological target: T1, FLAG-tagged NOD1, purified protein (human) (UniProt Q9Y239); experiment: pull-down; in vitro GST pull-down with purified recombinant proteins; which partner was held on the beads is not told; both purified
T1 sequence: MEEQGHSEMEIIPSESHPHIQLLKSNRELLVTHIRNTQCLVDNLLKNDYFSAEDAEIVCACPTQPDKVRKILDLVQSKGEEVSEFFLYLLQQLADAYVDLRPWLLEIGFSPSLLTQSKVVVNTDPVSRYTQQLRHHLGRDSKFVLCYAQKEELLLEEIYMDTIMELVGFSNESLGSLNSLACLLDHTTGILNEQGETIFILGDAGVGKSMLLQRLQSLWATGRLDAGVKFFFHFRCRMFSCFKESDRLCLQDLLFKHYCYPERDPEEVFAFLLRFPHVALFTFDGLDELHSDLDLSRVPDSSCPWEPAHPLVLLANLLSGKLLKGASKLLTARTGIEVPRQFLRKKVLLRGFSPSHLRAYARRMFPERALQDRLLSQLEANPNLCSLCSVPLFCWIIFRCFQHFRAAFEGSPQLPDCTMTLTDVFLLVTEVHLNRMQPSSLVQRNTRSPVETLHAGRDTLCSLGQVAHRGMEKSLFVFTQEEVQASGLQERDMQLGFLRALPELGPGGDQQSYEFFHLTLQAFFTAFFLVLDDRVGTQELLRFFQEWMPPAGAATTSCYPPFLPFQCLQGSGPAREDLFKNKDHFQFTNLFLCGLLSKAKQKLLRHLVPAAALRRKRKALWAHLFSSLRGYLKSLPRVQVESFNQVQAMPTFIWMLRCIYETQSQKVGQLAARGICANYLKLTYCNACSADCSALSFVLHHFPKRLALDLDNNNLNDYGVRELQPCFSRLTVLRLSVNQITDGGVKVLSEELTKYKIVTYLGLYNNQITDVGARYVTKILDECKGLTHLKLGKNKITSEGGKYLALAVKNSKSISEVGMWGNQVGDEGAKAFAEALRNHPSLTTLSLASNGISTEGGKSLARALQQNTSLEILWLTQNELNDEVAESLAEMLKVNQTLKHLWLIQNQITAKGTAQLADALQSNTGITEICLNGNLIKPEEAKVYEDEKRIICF

[2] = biological target: T2, NOD1, endogenous in MDA-MB-231 cells (human (endogenous in MDA-MB-231)) (UniProt Q9Y239); experiment: flow cytometry on cells; cells treated with graded concentrations (0-20 nmol/L) of HIS-tagged BFT-1 for 30 min, stained with anti-HIS antibody; dead cells excluded with DAPI; NOD1-overexpressing against empty vector 4T1 cells, shCTRL against NOD1-knockdown MDA-MB-231 cells; only the binder purified
T2 sequence: T1 sequence

[3] = biological target: T3, NOD1 overexpressed in 4T1 cells (human) (UniProt Q9Y239); experiment: as above
T3 sequence: T1 sequence

Measured: binding

HIS-tagged BFT-1 (Bacteroides fragilis toxin 1) (enterotoxigenic Bacteroides fragilis)
binds: all assays above
